{
  "source": "PubChem BioAssay AID504467",
  "about": "(National Center for Advancing Translational Sciences (NCATS), 2011)",
  "note": "In all, about 330,000 compounds went through this assay and about 7,700 (2.3%) were called active. The shares of active, inactive and inconclusive entries below differ from those in the screen. The call rests on the fitted dose curve; in most records, active means well fitted inhibition curve with a large enough effect; inconclusive means small, poorly fitted or top-dose-only effect, or effect the other way; inactive means flat fitted curve, though single readings scatter. Potencies of inconclusive entries are doubtful fits and often do not repeat. Potency means the concentration at half of the fitted maximal effect.",
  "data": [
    {"assay": "qHTS screen for small molecules that inhibit ELG1-dependent DNA repair in human embryonic kidney (HEK293T) cells expressing luciferase-tagged ELG1; further: nearly all actives have a fitted effect of over 55% in size", "conditions": "HEK293T ELG1-luciferase reporter, luminescence, 16 h, DNA damage induced by 5-fluorouridine; series mostly up to 46.1 µM", "method_in_brief": "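5-Fluorouridine DNA damage + compound/DMSO, 2,000 cells/well, 16 h, 37 °C/5% CO2. ONE-Glo, 30 min RT, luminescence. Readout = decrease in reporter signal.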", "values": [
      {"smiles": "CN(C)c1ccc(O)c2c1CC1CC3[C@@H](N(C)C)C(=O)C(C(N)=O)C(=O)[C@]3(O)C(=O)C1C2=O", "note": "(some centres undefined)", "Potency": "inactive"},
      {"smiles": "COc1cccc(NC(=O)c2cc3ccccc3o/c2=N\\O)c1", "Potency": "inconclusive: 0.282 µM [activator, full curve, poor fit]"},
      {"smiles": "CC12CCC(=O)N1C(C(=O)Nc1nc3ccccc3s1)CS2", "note": "(centres undefined)", "Potency": "inconclusive: 29.1 µM [activator, single point]"},
      {"smiles": "CCc1cc(=O)oc2cc(C)cc(OCC(=O)NCCc3c[nH]c4ccccc34)c12", "Potency": "active: 5.8 µM"},
      {"smiles": "COC(=O)c1ccc(NC(=O)CCN2CCOCC2)cc1", "Potency": "inactive"},
      {"smiles": "Clc1ccc2[nH]c3c(N4CCC5(CC4)OCCO5)ncnc3c2c1", "Potency": "inconclusive: 4.11 µM [inhibitor, single point]"},
      {"smiles": "CCC(C)(C)C1CCC2(CC1)NC(=O)N(CC(=O)N1CCN(S(=O)(=O)c3cc(C)ccc3C)CC1)C2=O", "note": "(centres undefined)", "Potency": "inactive"},
      {"smiles": "CSCCC(NC(=O)COc1ccccc1)C(=O)N1CCOCC1", "note": "(centres undefined)", "Potency": "inactive"},
      {"smiles": "CCOc1cc(S(=O)(=O)NC2CC2)c(OCC)cc1-n1cnnn1", "Potency": "inactive"},
      {"smiles": "O=C1CNc2ccc(C(=O)N3CCN(c4ccccn4)CC3)cc2N1", "Potency": "inconclusive: 16.4 µM [activator, partial curve, poor fit]"},
      {"smiles": "OCCCNc1nccc(-c2cc(Nc3cccc(Cl)c3)ncn2)n1", "Potency": "active: 0.92 µM"},
      {"smiles": "CCOc1ccccc1NC(=O)C(OC(=O)c1ccc(NC(=O)CC#N)cc1)c1ccccc1", "note": "(centres undefined)", "Potency": "inconclusive: 23.1 µM [inhibitor, single point]"},
      {"smiles": "Clc1ccc(-c2c[n+](Cc3ccc(Cl)cc3Cl)c3n2CCCCC3)cc1", "Potency": "inconclusive: 20.6 µM [inhibitor, single point]"},
      {"smiles": "CN(C)CCCN(C(=O)c1ccc2ccccc2c1)c1nc2cc3c(cc2s1)OCO3", "Potency": "inactive"},
      {"smiles": "COc1ccc(CCn2c(-c3ccco3)nc3ccccc3c2=O)cc1OC", "Potency": "active: 10.3 µM"},
      {"smiles": "Cc1cccn2c(=O)c3cc(C(=O)NCc4ccco4)c(=N)n(C4CCCCC4)c3nc12", "Potency": "inconclusive: 16.4 µM [inhibitor, partial curve]"},
      {"smiles": "COc1cc(OC)c(OC)cc1CNC(=O)c1cccc(S(=O)(=O)N2CCc3ccccc3C2)c1", "Potency": "inconclusive: 10.3 µM [inhibitor, partial curve, poor fit]"},
      {"smiles": "Cn1c(=O)c2cc(S(=O)(=O)Nc3cccc(F)c3)ccc2n(C)c1=O", "Potency": "inconclusive: 6.51 µM [inhibitor, partial curve]"},
      {"smiles": "CSc1nnc(C)c(=O)n1COC(=O)c1cc(Cl)ccc1[N+](=O)[O-]", "Potency": "inactive"},
      {"smiles": "CCc1ccccc1Nc1nc(N)nc(COC(=O)CCC(=O)c2ccc(F)cc2)n1", "Potency": "inconclusive: 20.6 µM [activator, partial curve]"},
      {"smiles": "NC(=O)c1c(/N=C/c2cccnc2)sc2c1CCCC2", "Potency": "inconclusive: 20.6 µM [activator, partial curve]"},
      {"smiles": "COc1cc2c(C#CCCCO)c(-c3ccsc3)oc(=O)c2cc1OC", "Potency": "active: 4.11 µM"},
      {"smiles": "COc1ccc(-n2nc(C(=O)NCc3ccco3)c3c4ccccc4n(C)c3c2=O)cc1Cl", "Potency": "inconclusive: 6.51 µM [inhibitor, single point]"},
      {"smiles": "COc1ccc(Nc2c3c(nc4c(-c5ccccc5)c(C)nn24)CCC3)cc1", "Potency": "active: 14.6 µM"},
      {"smiles": "CNc1ccc(Br)cc(C(=O)/C=C/c2cccc(Cl)c2Cl)c1=O", "Potency": "inactive"},
      {"smiles": "COc1ccc(OC)c(NC=C2C(=O)OC(C)(C)OC2=O)c1", "Potency": "inconclusive: 13 µM [activator, partial curve, poor fit]"},
      {"smiles": "CN(CC(=O)Nc1ccc(Cl)c(C(F)(F)F)c1)C(=O)c1ccc(N2CCOCC2)c([N+](=O)[O-])c1", "Potency": "inconclusive: 11.6 µM [inhibitor, single point]"},
      {"smiles": "Cc1ccc(-c2nnc(COC(=O)c3cccs3)o2)cc1", "Potency": "inconclusive: 13 µM [activator, partial curve]"},
      {"smiles": "CCOc1ccccc1Oc1c(C)oc2c(CN3CCN(CCO)CC3)c(O)ccc2c1=O", "Potency": "inactive"},
      {"smiles": "COc1ccc(Cl)cc1NC(=S)NCCCN1CCCC1=O", "Potency": "inconclusive: 29.1 µM [inhibitor, single point]"},
      {"smiles": "Cc1ccc2nc(-c3ccccc3)cc(C(=O)N(C)CC(=O)Nc3ccccc3Br)c2c1", "Potency": "inconclusive: 13 µM [inhibitor, partial curve, poor fit]"},
      {"smiles": "CC(=O)n1cc([C@@H]2C=C(C(=O)N3CCN(Cc4ccc5c(c4)OCO5)CC3)O[C@H](OCc3ccc(CO)cc3)C2)c2ccccc21", "Potency": "inconclusive: 6.51 µM [inhibitor, single point]"},
      {"smiles": "CCOC(=O)c1nn(-c2ccc(C)cc2)c(=O)cc1OCC(=O)Nc1cccc(C)c1", "Potency": "inactive"},
      {"smiles": "Cc1ccc2nc(NC(=O)c3ccc(S(=O)(=O)N4CCCc5ccccc54)cc3)sc2c1", "Potency": "inconclusive: 4.11 µM [inhibitor, single point]"},
      {"smiles": "CCOC(=O)CCc1c(C)nc2ncnn2c1C", "Potency": "inconclusive: 20.6 µM [activator, partial curve, poor fit]"},
      {"smiles": "c1cnc(Nc2nc(-c3ccc4ccccc4c3)cs2)nc1", "Potency": "inconclusive: 0.461 µM [activator, full curve, poor fit]"},
      {"smiles": "CC(CCc1ccccc1)NC(=O)C(=O)Nc1ccccc1", "note": "(centres undefined)", "Potency": "inconclusive: 9.2 µM [activator, partial curve]"},
      {"smiles": "COc1cc(OC)cc(C(=O)Nc2ccc(S(=O)(=O)Nc3ccccn3)cc2)c1", "Potency": "inactive"},
      {"smiles": "Brc1ccc(CSc2ccc3nnc(-c4cccnc4)n3n2)cc1", "Potency": "inactive"},
      {"smiles": "COc1ccc(OC)c(-c2nn(-c3ccccc3)cc2C(=O)NCC(c2ccco2)N2CCCC2)c1", "note": "(centres undefined)", "Potency": "inconclusive: 20.6 µM [inhibitor, single point]"},
      {"smiles": "COc1ccc(OCC(=O)Nc2ccc3c(c2)nc(CCN2CCC(C)CC2)n3C)cc1", "Potency": "inactive"},
      {"smiles": "O=C1c2ccc3c4c(ccc(c24)C(=O)N1c1cccc(O)c1)C(=O)N(c1cccc(O)c1)C3=O", "Potency": "active: 6.51 µM"},
      {"smiles": "COc1ccc(NC(=O)CSc2nc(=O)n(CCN3CCOCC3)c3c2CCCC3)c(OC)c1", "Potency": "inactive"},
      {"smiles": "CCOCCCn1c(=S)[nH]c2cc(C(=O)NCCc3ccccc3)ccc2c1=O", "Potency": "inactive"},
      {"smiles": "COc1ccc(-c2cc(C(=O)Nc3ccccc3N3CCOCC3)c3ccccc3n2)cc1OC", "Potency": "active: 11.6 µM"},
      {"smiles": "COc1cc(NC(=O)C2=CC(c3ccc(C)cc3)=NS(=O)(=O)N2C)cc(OC)c1OC", "Potency": "active: 13 µM"},
      {"smiles": "CCOC(=O)c1ccc(NC(=O)c2ccc(OC(C)C)c(OC)c2)cc1", "Potency": "inconclusive: 29.1 µM [inhibitor, single point]"},
      {"smiles": "O=C(CN1CCN(C/C=C/c2ccccc2)CC1)Nc1ccccc1C(=O)NC1CC1", "Potency": "inconclusive: 23.1 µM [inhibitor, single point]"},
      {"smiles": "Cc1ccc(Cn2nc(C)c(NC(=O)CSc3n[nH]c(C)c3[N+](=O)[O-])c2C)cc1", "Potency": "inconclusive: 18.4 µM [inhibitor, partial curve]"},
      {"smiles": "Cc1cc(C)nc(/N=C(\\N)Nc2cc([N+](=O)[O-])ccc2C)n1", "Potency": "inactive"},
      {"smiles": "O=C(O)c1cccc(CSc2nnc(-c3ccco3)o2)c1", "Potency": "inconclusive: 20.6 µM [activator, partial curve, poor fit]"},
      {"smiles": "O=c1c(Cl)c(NCc2ccco2)cnn1C12CC3CC(CC(C3)C1)C2", "Potency": "inconclusive: 29.1 µM [activator, partial curve, poor fit]"},
      {"smiles": "O=C(NCc1ccco1)C(c1ccccc1)N(C(=O)Cc1cccs1)c1ccccc1F", "note": "(centres undefined)", "Potency": "active: 18.4 µM"},
      {"smiles": "C[n+]1ccc(/C=C/c2c[nH]c3ccccc23)cc1", "Potency": "inconclusive: 3.66 µM [inhibitor, single point]"},
      {"smiles": "CCOc1ccc(N=C(NC#N)SCC(=O)NC2CC2)cc1", "Potency": "inactive"},
      {"smiles": "Cc1cccc(C(=O)N2CCCC(CCC(=O)N3CCN(c4ccccn4)CC3)C2)c1C", "note": "(centres undefined)", "Potency": "inconclusive: 4.11 µM [inhibitor, full curve, poor fit]"},
      {"smiles": "CC(C)(C)NC(=O)c1cc(-c2ccccc2)n[nH]1", "Potency": "inactive"},
      {"smiles": "C/C(=N\\Nc1ccc(S(N)(=O)=O)cc1[N+](=O)[O-])c1ccc2c(c1)OCO2", "Potency": "inconclusive: 11.6 µM [inhibitor, partial curve, poor fit]"},
      {"smiles": "OCC1(Cc2ccc(Cl)cc2)CCN(Cc2ccc(F)c(F)c2)CC1", "Potency": "inconclusive: 20.6 µM [inhibitor, single point]"},
      {"smiles": "Cn1c(/C=N/c2nc3ccccc3[nH]2)nc2ccccc21", "Potency": "inactive"},
      {"smiles": "COc1ccccc1N(C)S(=O)(=O)c1ccc(Cl)c(C(=O)N2CCC2)c1", "Potency": "inactive"},
      {"smiles": "CCOC(=O)c1ccccc1NC(=O)CSc1nc2ccccc2o1", "Potency": "inconclusive: 20.6 µM [activator, single point]"},
      {"smiles": "CC[C@]1(c2ccccc2OC)ON(c2ccccc2C(F)(F)F)C1=O", "Potency": "inconclusive: 20.6 µM [inhibitor, partial curve, poor fit]"},
      {"smiles": "O=C(NC1CCCCC1)c1cc2cc(Br)ccc2o1", "Potency": "inconclusive: 8.2 µM [activator, partial curve]"},
      {"smiles": "Cc1cccc(C(=O)Nc2ccc(C(=O)/C=C/c3ccncc3)cc2)c1", "Potency": "inconclusive: 18.3 µM [activator, partial curve]"},
      {"smiles": "O=C(CSc1nnc(-c2ccco2)o1)N1CCCCC1", "Potency": "inconclusive: 18.3 µM [activator, partial curve]"},
      {"smiles": "O=C1C=C(c2ccc(-c3ccccc3)c(F)c2)C[C@@H](c2ccc3c(c2)OCO3)C1", "Potency": "inconclusive: 32.6 µM [inhibitor, single point]"},
      {"smiles": "O=C(c1cccc(C(=O)N2CCN(c3ncccn3)CC2)c1)N1CCN(c2ncccn2)CC1", "Potency": "inactive"},
      {"smiles": "CCOC(=O)N1CCN(C(=O)c2ccc3nc(-c4ccccc4)c(-c4ccccc4)nc3c2)CC1", "Potency": "active: 23.1 µM"}
    ]}
  ]
}
